Results published in the supplement of paper PMC6411743.
± gives the standard deviation of the averaged measurements. The list shows a part of the results, in another mix than the full data.

Sequences of proteins named here, by UniProt entry; tags and fusion partners are left off. A change or cut given only in a name is not applied to a line headed by its entry.
UniProt Q9NYZ3: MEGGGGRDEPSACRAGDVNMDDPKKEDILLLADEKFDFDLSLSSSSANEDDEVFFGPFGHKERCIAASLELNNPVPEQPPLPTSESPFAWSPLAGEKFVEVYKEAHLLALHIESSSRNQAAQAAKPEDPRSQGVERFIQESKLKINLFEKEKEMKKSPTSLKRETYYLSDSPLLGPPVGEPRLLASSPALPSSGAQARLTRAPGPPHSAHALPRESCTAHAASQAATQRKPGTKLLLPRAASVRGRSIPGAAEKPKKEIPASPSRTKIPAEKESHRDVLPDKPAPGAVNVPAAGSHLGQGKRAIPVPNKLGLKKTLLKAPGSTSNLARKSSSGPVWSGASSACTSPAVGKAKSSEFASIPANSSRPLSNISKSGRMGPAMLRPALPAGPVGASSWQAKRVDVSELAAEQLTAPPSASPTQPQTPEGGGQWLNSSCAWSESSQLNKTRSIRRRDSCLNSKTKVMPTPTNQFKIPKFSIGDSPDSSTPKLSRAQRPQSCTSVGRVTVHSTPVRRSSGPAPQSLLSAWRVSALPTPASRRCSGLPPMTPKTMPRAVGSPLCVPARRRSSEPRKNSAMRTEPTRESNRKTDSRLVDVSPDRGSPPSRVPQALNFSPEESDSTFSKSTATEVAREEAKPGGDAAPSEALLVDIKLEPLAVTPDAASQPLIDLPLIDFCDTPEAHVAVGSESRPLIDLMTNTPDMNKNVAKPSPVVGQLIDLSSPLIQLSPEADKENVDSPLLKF
UniProt Q9NYV4, whole entry, looked up: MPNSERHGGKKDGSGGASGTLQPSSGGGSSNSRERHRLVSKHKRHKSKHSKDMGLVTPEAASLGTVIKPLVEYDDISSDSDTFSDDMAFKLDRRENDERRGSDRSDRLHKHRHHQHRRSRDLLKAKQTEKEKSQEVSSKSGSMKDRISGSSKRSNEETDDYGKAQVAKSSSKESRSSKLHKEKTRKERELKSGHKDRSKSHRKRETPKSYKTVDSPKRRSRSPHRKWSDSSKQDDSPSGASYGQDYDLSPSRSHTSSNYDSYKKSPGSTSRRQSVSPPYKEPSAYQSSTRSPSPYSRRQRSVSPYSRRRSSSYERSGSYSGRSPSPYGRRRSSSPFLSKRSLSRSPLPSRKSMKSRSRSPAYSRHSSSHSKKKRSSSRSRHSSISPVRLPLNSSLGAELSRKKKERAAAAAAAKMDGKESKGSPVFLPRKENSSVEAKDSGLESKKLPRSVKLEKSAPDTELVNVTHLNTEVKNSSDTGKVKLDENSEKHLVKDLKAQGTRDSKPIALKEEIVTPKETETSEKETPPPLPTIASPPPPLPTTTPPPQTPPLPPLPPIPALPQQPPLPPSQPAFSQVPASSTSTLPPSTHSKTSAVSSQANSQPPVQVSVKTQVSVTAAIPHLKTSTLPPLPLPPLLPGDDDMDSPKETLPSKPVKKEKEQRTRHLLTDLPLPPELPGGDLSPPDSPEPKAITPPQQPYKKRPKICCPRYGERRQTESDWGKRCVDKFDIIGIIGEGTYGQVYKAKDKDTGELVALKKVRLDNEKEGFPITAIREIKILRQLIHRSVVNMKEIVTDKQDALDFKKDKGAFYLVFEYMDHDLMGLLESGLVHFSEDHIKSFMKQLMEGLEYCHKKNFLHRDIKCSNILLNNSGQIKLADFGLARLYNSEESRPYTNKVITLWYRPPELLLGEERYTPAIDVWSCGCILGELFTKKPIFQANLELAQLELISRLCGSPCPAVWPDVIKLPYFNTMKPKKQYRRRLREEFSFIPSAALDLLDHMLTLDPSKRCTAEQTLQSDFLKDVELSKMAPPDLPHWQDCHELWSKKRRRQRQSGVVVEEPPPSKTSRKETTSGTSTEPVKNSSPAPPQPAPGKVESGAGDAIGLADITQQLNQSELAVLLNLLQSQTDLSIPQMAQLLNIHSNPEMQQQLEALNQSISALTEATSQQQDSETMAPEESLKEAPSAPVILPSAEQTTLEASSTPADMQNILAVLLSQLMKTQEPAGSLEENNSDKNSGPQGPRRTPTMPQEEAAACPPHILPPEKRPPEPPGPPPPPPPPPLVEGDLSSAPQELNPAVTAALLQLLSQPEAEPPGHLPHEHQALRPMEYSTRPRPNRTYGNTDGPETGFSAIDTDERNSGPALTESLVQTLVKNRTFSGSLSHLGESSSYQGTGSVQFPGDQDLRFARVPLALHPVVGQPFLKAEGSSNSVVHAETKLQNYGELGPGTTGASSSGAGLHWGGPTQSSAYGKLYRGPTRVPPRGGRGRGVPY
UniProt Q9NRW4: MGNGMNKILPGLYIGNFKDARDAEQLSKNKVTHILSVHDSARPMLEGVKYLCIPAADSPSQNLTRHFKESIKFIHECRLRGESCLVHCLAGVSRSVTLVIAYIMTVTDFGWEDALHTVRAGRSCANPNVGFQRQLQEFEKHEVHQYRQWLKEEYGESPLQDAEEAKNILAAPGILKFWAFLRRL
UniProt Q9NSY1, whole entry, looked up: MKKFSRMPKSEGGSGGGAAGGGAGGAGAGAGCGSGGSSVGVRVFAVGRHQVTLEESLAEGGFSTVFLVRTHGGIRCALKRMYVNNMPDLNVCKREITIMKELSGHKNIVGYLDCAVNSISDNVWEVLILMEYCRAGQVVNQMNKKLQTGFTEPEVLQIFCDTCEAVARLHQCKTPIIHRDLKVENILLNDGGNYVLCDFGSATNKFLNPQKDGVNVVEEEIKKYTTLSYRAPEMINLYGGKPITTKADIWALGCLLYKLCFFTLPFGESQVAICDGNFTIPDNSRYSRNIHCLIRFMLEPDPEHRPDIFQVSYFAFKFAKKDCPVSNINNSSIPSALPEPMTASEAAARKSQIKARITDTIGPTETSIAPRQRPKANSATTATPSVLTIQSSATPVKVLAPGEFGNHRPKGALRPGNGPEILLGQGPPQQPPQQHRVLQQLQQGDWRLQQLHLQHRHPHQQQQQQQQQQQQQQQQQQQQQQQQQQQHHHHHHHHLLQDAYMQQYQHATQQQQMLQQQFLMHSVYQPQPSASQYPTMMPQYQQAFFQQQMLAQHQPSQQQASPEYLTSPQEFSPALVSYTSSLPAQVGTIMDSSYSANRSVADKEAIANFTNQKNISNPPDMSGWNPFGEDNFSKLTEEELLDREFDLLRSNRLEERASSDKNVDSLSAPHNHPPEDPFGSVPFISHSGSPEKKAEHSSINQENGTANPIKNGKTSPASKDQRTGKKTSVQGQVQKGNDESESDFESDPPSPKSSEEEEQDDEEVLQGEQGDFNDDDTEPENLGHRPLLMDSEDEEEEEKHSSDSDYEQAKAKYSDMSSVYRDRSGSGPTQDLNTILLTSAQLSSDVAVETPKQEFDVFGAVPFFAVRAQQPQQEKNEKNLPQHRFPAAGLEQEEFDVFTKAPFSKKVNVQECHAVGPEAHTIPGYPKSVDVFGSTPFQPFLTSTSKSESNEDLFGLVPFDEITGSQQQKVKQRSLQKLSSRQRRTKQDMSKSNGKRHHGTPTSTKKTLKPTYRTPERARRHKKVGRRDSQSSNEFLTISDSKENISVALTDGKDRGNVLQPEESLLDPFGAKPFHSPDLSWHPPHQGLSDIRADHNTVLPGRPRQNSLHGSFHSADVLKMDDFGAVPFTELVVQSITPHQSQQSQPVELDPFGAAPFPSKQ
UniProt Q9NVM9, whole entry: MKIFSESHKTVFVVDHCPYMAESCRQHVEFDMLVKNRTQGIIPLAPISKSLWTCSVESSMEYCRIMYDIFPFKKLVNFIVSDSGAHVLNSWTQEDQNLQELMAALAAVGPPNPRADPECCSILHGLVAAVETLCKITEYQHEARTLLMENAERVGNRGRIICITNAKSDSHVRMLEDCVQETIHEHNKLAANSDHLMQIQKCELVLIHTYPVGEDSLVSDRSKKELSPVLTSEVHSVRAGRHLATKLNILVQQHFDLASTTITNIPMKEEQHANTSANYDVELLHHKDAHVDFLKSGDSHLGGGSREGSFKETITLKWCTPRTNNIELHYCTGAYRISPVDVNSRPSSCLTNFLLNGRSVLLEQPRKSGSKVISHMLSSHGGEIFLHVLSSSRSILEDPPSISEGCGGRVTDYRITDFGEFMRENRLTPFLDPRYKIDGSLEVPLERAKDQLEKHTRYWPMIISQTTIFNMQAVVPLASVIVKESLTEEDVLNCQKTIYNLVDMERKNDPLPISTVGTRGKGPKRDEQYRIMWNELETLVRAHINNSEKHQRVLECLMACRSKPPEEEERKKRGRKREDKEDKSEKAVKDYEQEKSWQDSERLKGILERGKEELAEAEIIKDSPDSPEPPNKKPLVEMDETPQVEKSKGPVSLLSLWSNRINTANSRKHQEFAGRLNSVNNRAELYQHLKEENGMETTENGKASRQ
UniProt Q9UBM7: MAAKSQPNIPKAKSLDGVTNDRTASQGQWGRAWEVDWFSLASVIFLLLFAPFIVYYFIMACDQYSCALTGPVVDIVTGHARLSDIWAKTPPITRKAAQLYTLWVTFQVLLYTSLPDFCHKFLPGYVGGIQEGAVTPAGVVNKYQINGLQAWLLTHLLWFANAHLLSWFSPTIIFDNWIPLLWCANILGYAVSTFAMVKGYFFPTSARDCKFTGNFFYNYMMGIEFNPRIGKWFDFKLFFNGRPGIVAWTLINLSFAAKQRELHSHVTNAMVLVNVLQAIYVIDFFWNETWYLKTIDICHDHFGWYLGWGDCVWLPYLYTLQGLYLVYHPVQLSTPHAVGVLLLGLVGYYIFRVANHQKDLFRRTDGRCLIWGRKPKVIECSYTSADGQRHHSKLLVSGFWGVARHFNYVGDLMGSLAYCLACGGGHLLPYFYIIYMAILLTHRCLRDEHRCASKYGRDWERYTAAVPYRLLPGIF
UniProt Q9NSK0: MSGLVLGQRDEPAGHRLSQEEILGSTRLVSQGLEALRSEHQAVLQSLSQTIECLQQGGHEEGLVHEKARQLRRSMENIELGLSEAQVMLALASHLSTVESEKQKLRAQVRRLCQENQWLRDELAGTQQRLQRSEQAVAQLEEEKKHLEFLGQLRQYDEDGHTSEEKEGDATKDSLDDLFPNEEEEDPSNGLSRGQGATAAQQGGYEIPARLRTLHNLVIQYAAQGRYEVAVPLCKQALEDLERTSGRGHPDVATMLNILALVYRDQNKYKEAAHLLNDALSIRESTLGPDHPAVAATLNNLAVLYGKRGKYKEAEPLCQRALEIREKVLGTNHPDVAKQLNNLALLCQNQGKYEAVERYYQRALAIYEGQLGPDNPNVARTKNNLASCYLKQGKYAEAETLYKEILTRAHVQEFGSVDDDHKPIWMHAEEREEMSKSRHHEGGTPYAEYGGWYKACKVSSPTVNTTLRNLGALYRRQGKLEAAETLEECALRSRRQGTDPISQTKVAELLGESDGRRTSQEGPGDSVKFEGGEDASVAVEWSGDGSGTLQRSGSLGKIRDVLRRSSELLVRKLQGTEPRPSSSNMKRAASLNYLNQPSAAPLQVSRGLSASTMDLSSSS
UniProt Q9NV35: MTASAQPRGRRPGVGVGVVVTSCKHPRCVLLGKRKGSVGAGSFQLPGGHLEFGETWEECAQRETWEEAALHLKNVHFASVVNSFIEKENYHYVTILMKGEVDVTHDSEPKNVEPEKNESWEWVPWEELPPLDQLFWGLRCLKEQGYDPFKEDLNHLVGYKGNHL
UniProt Q9NQH7: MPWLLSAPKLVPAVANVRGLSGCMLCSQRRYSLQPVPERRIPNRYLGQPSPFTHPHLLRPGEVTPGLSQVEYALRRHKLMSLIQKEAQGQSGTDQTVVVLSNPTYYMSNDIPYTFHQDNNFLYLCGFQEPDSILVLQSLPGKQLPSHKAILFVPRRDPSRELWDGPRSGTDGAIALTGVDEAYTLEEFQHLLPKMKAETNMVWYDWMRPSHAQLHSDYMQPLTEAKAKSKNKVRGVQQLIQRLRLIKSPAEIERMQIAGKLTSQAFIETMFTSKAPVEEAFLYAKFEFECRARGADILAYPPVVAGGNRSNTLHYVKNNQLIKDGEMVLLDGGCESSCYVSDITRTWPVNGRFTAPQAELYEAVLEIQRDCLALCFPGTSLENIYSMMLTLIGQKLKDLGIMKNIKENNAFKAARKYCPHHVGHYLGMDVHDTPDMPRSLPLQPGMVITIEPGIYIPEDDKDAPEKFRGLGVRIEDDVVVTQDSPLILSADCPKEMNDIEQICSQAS
UniProt Q9NRF9: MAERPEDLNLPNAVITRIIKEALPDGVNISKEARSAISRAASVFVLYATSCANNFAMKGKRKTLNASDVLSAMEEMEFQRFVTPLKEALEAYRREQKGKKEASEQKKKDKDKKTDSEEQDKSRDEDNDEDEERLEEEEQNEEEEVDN
UniProt Q9NYL9: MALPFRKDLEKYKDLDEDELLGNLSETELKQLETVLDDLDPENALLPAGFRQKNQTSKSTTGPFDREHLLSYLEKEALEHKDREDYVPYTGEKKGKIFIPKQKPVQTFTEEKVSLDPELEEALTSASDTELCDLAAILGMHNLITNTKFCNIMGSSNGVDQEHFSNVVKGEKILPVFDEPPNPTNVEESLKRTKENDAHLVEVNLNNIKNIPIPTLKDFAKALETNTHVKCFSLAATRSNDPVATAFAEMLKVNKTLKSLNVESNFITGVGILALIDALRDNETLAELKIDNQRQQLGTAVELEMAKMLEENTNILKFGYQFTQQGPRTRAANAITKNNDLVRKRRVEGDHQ

Compound: Nc1ncnc2c1ncn2[C@@H]1O[C@H](COP(=O)(O)OP(=O)(O)NP(=O)(O)O)[C@@H](O)[C@H]1O [adenylyl imidodiphosphate]
Experiment: NP40-soluble protein abundance relative to vehicle (solubility fold change) (ratio); higher = more soluble protein in presence of AMP-PNP
In short: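 Crude Jurkat lysate, prepared by Dounce homogenisation, was exposed to eight concentrations from 0.1 to 10 mM for 10 min at room temperature and then 3 min at 37 °C. Solubilisation used 0.8% NP40 with benzonase for 60 min at 4 °C, followed by ultracentrifugation and TMT labelling of the supernatant for LC-MS/MS. After vsn normalisation of intensities, each value is the fold change against the detergent-processed vehicle within each replicate, across three independent experiments.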

Target	NP40-soluble protein abundance (concentration: 1mM)	NP40-soluble protein abundance (concentration: 2mM)	NP40-soluble protein abundance (concentration: 4mM)	NP40-soluble protein abundance (concentration: 6mM)	NP40-soluble protein abundance (concentration: 8mM)	NP40-soluble protein abundance (concentration: 10mM)
UniProt Q9NRG7-2|Q9NRG7	0.915 ± 0.047	0.877 ± 0.053	0.917 ± 0.044	0.911 ± 0.063	0.903 ± 0.072	0.881 ± 0.043
UniProt Q9UBL0 and related entries	1.02 ± 0.0088	1.04 ± 0.062	0.988 ± 0.027	0.997 ± 0.013	0.949 ± 0.023	0.977 ± 0.028
MTPAP (UniProt Q9NVV4)	0.772 ± 0.042	0.829 ± 0.033	0.871 ± 0.042	0.932 ± 0.047	0.994 ± 0.091	1.08 ± 0.11
METTL1 (UniProt Q9UBP6)	0.972 ± 0.013	0.996 ± 0.022	1.01 ± 0.032	1 ± 0.05	1.01 ± 0.024	0.98 ± 0.018
BAZ1A (UniProt Q9NRL2)	1.06 ± 0.031	1.09 ± 0.024	1.1 ± 0.026	1.142 ± 0.0034	1.131 ± 0.0057	1.174 ± 0.0098
UniProt Q9NRZ7 and related entries	0.975 ± 0.028	0.958 ± 0.031	0.966 ± 0.014	0.927 ± 0.02	0.955 ± 0.018	0.941 ± 0.043
MRPL39 (UniProt Q9NYK5)	0.996 ± 0.091	0.952 ± 0.15	0.966 ± 0.17	0.945 ± 0.16	0.959 ± 0.1	0.95 ± 0.19
UniProt Q9NUP7	1.03 ± 0.013	1.02 ± 0.019	1.02 ± 0.051	0.973 ± 0.037	0.97 ± 0.029	0.988 ± 0.032
GRHPR (UniProt Q9UBQ7)	0.992 ± 0.048	0.927 ± 0.048	0.987 ± 0.011	1 ± 0.086	1.01 ± 0.056	0.974 ± 0.034
UniProt Q9NYP7 and related entries	0.961 ± 0.05	0.893 ± 0.041	0.952 ± 0.043	0.947 ± 0.059	0.969 ± 0.074	0.939 ± 0.018
UniProt Q9NWY4	1.05 ± 0.021	1.06 ± 0.04	1.06 ± 0.041	0.998 ± 0.032	1.03 ± 0.046	1.04 ± 0.06
DPP3 (UniProt Q9NY33)	0.955 ± 0.03	0.898 ± 0.035	0.934 ± 0.037	1 ± 0.067	0.996 ± 0.043	0.9705 ± 0.0082
GTSE1 (UniProt Q9NYZ3)	1.01 ± 0.026	1.03 ± 0.029	1.03 ± 0.054	1.03 ± 0.041	1.02 ± 0.069	1.04 ± 0.06
UniProt Q9NWV8	0.974 ± 0.011	0.97 ± 0.037	0.972 ± 0.039	0.958 ± 0.016	0.943 ± 0.055	0.983 ± 0.061
UniProt Q9P1Z2 and related entries	1.02 ± 0.052	1.04 ± 0.025	1.07 ± 0.013	1.03 ± 0.044	0.992 ± 0.012	0.998 ± 0.015
COPG2 (UniProt Q9UBF2)	1.01 ± 0.021	0.953 ± 0.075	0.985 ± 0.027	0.995 ± 0.021	0.986 ± 0.012	0.978 ± 0.032
ZNF219 (UniProt Q9P2Y4)	1 ± 0.03	1.02 ± 0.037	1.02 ± 0.033	1.01 ± 0.037	1 ± 0.0062	1 ± 0.019
UniProt Q9NYV4 and related entries	1.05 ± 0.015	1.09 ± 0.017	1.064 ± 0.0043	1.08 ± 0.038	1.07 ± 0.045	1.11 ± 0.04
SMC4 (UniProt Q9NTJ3)	1.01 ± 0.015	1.03 ± 0.046	0.9777 ± 0.0039	0.98 ± 0.032	0.952 ± 0.022	0.973 ± 0.034
UniProt Q9NVI7-2	1.08 ± 0.075	1.05 ± 0.073	1.14 ± 0.18	1.29 ± 0.18	1.38 ± 0.24	1.44 ± 0.32

Complete entries as entered above. Values in the order: NP40-soluble protein abundance (concentration: 1mM)	NP40-soluble protein abundance (concentration: 2mM)	NP40-soluble protein abundance (concentration: 4mM)	NP40-soluble protein abundance (concentration: 6mM)	NP40-soluble protein abundance (concentration: 8mM)	NP40-soluble protein abundance (concentration: 10mM)
MTPAP (UniProt Q9NVV4) is entered as 0.772 ± 0.042	0.829 ± 0.033	0.871 ± 0.042	0.932 ± 0.047	0.994 ± 0.091	1.08 ± 0.11
SMC4 (UniProt Q9NTJ3) is entered as 1.01 ± 0.015	1.03 ± 0.046	0.9777 ± 0.0039	0.98 ± 0.032	0.952 ± 0.022	0.973 ± 0.034
UniProt Q9UBL0 and related entries is entered as 1.02 ± 0.0088	1.04 ± 0.062	0.988 ± 0.027	0.997 ± 0.013	0.949 ± 0.023	0.977 ± 0.028
UniProt Q9NUP7 is entered as 1.03 ± 0.013	1.02 ± 0.019	1.02 ± 0.051	0.973 ± 0.037	0.97 ± 0.029	0.988 ± 0.032

Further entries

Target	NP40-soluble protein abundance (concentration: 1mM)	NP40-soluble protein abundance (concentration: 2mM)	NP40-soluble protein abundance (concentration: 4mM)	NP40-soluble protein abundance (concentration: 6mM)	NP40-soluble protein abundance (concentration: 8mM)	NP40-soluble protein abundance (concentration: 10mM)
UniProt Q9NS73 and related entries	1.02 ± 0.024	1.03 ± 0.011	1.03 ± 0.047	1.02 ± 0.042	1.02 ± 0.02	1.007 ± 0.0054
UniProt Q9NRW4 and related entries	0.99 ± 0.026	0.9982 ± 0.0082	0.987 ± 0.022	0.96839 ± 0.00031	0.969 ± 0.031	0.9568 ± 0.0011
UniProt Q9NSC5 and related entries	0.985 ± 0.058	1.01 ± 0.031	1.02 ± 0.034	0.995 ± 0.042	0.99 ± 0.053	1.01 ± 0.089
UniProt Q9NZ08 and related entries	0.976 ± 0.05	0.9575 ± 0.0043	1 ± 0.048	1.06 ± 0.084	1.08 ± 0.064	1.07 ± 0.047
TBC1D22B (UniProt Q9NU19)	0.99 ± 0.013	1.01 ± 0.027	1.01 ± 0.033	1 ± 0.026	1 ± 0.014	1.01 ± 0.029
UniProt Q9NWF9 and related entries	0.977 ± 0.016	1.01 ± 0.029	0.987 ± 0.032	0.95 ± 0.03	0.973 ± 0.038	0.972 ± 0.035
UniProt Q9NUP1	1.01 ± 0.054	1.03 ± 0.054	1.02 ± 0.029	1.01 ± 0.024	0.999 ± 0.026	0.998 ± 0.033
UniProt Q9NSY1	1.026 ± 0.003	1.03 ± 0.023	1.03 ± 0.018	1.05 ± 0.027	1.05 ± 0.02	1.09 ± 0.02
PIH1D1 (UniProt Q9NWS0)	1.01 ± 0.032	1.048 ± 0.0085	1.03 ± 0.04	0.98 ± 0.06	0.977 ± 0.019	0.983 ± 0.02
UniProt Q9NYP9	0.982 ± 0.017	0.987 ± 0.018	0.944 ± 0.018	0.927 ± 0.03	0.885 ± 0.019	0.8884 ± 0.0083
UniProt Q9NWR8	1.009 ± 0.0068	1 ± 0.043	1.01 ± 0.034	0.998 ± 0.036	1.008 ± 0.0018	1.01 ± 0.031
UniProt Q9NVM9	1.03 ± 0.027	1.02 ± 0.04	1.05 ± 0.033	1.02 ± 0.069	1.03 ± 0.075	1.03 ± 0.063
UniProt Q9P2D3 and related entries	0.993 ± 0.011	0.982 ± 0.03	0.996 ± 0.04	0.993 ± 0.022	1 ± 0.026	0.968 ± 0.023
DDX21 (UniProt Q9NR30)	1.21 ± 0.11	1.25 ± 0.13	1.39 ± 0.23	1.55 ± 0.31	1.66 ± 0.38	1.78 ± 0.4
UniProt Q9NUQ3	1.03 ± 0.023	1.09 ± 0.066	1.04 ± 0.029	1.07 ± 0.03	1.04 ± 0.013	1.04 ± 0.03
UniProt Q9NXH9 and related entries	0.992 ± 0.012	0.995 ± 0.02	1.01 ± 0.024	0.959 ± 0.03	0.9583 ± 0.0056	0.958 ± 0.027
RCC2 (UniProt Q9P258)	0.973 ± 0.041	0.902 ± 0.065	0.945 ± 0.063	1.01 ± 0.023	1.07 ± 0.015	1.038 ± 0.0087
CWC15 (UniProt Q9P013)	1.04 ± 0.037	1.12 ± 0.079	1.037 ± 0.0085	1.07 ± 0.034	1.06 ± 0.04	1.09 ± 0.021
DHCR7 (UniProt Q9UBM7)	1.04 ± 0.063	1.01 ± 0.06	1.04 ± 0.081	0.986 ± 0.035	1 ± 0.058	0.986 ± 0.061
AASDHPPT (UniProt Q9NRN7)	0.934 ± 0.065	0.889 ± 0.045	0.944 ± 0.034	0.988 ± 0.12	0.984 ± 0.12	0.957 ± 0.14

Target	NP40-soluble protein abundance (concentration: 1mM)	NP40-soluble protein abundance (concentration: 2mM)	NP40-soluble protein abundance (concentration: 4mM)	NP40-soluble protein abundance (concentration: 6mM)	NP40-soluble protein abundance (concentration: 8mM)	NP40-soluble protein abundance (concentration: 10mM)
INTS10 (UniProt Q9NVR2)	0.966 ± 0.014	0.932 ± 0.041	1 ± 0.03	1.03 ± 0.048	1.02 ± 0.012	1.03 ± 0.024
UniProt Q9NVA1 and related entries	1.01 ± 0.043	1 ± 0.047	1.02 ± 0.049	0.961 ± 0.011	0.996 ± 0.014	0.995 ± 0.024
KLC4 (UniProt Q9NSK0)	1.04 ± 0.027	1.07 ± 0.11	1.04 ± 0.0083	1.02 ± 0.027	0.9997 ± 0.0053	1.05 ± 0.035
NUDT15 (UniProt Q9NV35)	0.957 ± 0.049	1.01 ± 0.048	0.975 ± 0.053	1.02 ± 0.072	1.01 ± 0.023	1.01 ± 0.059
UniProt Q9NQH7 and related entries	1.02 ± 0.011	0.964 ± 0.022	1.038 ± 0.0069	1.04 ± 0.053	1.07 ± 0.062	1.04 ± 0.034
POLE3 (UniProt Q9NRF9)	1.07 ± 0.051	1.09 ± 0.079	1.03 ± 0.065	0.972 ± 0.036	0.961 ± 0.039	0.954 ± 0.015
NECAP2 (UniProt Q9NVZ3)	1.02 ± 0.026	0.998 ± 0.031	0.982 ± 0.017	0.999 ± 0.013	0.984 ± 0.011	0.998 ± 0.046
RBM28 (UniProt Q9NW13)	1.05 ± 0.03	1.08 ± 0.016	1.08 ± 0.016	1.12 ± 0.017	1.12 ± 0.028	1.16 ± 0.038
OXSM (UniProt Q9NWU1)	1.019 ± 0.0062	0.995 ± 0.011	1.01 ± 0.036	0.998 ± 0.012	1 ± 0.029	1.01 ± 0.043
MRPL16 (UniProt Q9NX20)	1.02 ± 0.031	0.996 ± 0.06	1 ± 0.06	1.02 ± 0.12	0.994 ± 0.098	1.01 ± 0.13
IGF2BP1 (UniProt Q9NZI8)	1.01 ± 0.03	0.995 ± 0.026	0.9899 ± 0.0031	1.05 ± 0.035	1.02 ± 0.039	1.01 ± 0.05
HECA (UniProt Q9UBI9)	0.969 ± 0.029	1 ± 0.017	1.02 ± 0.049	1.034 ± 0.0078	1.06 ± 0.046	1.04 ± 0.024
UniProt Q9NW08 and related entries	0.975 ± 0.02	0.897 ± 0.082	0.961 ± 0.055	0.932 ± 0.04	0.939 ± 0.051	0.921 ± 0.085
UniProt Q9P2X0-2|Q9P2X0	0.968 ± 0.026	0.929 ± 0.032	0.957 ± 0.027	0.98 ± 0.04	1 ± 0.019	0.933 ± 0.018
FANCI (UniProt Q9NVI1)	0.971 ± 0.018	0.973 ± 0.028	0.975 ± 0.03	1.04 ± 0.056	1.01 ± 0.055	1.04 ± 0.04
SMARCAL1 (UniProt Q9NZC9)	0.995 ± 0.035	1.01 ± 0.058	1 ± 0.021	1.02 ± 0.024	1.01 ± 0.026	1.02 ± 0.02
AVEN (UniProt Q9NQS1)	0.961 ± 0.061	1.02 ± 0.041	0.938 ± 0.078	0.916 ± 0.03	0.921 ± 0.039	0.959 ± 0.035
UniProt Q9UBP0 and related entries	1.09 ± 0.08	1.04 ± 0.043	1.04 ± 0.056	1.04 ± 0.055	1.04 ± 0.054	1.02 ± 0.064
TMOD3 (UniProt Q9NYL9)	1.02 ± 0.045	1.05 ± 0.057	1.01 ± 0.061	0.977 ± 0.046	0.985 ± 0.029	0.957 ± 0.054
UniProt Q9P2K8 and related entries	0.981 ± 0.037	0.959 ± 0.055	0.994 ± 0.021	0.952 ± 0.012	0.9529 ± 0.0031	0.941 ± 0.023
